Results are given in words; binding and its absence hold for the method and conditions named. Binding seen in cells or lysates may run through a third protein. Some entries that bind do so weakly or less than the wild type.
Target: T1, TRIM46 (human (endogenous in H358)) (UniProt Q7Z4K8)
T1 sequence: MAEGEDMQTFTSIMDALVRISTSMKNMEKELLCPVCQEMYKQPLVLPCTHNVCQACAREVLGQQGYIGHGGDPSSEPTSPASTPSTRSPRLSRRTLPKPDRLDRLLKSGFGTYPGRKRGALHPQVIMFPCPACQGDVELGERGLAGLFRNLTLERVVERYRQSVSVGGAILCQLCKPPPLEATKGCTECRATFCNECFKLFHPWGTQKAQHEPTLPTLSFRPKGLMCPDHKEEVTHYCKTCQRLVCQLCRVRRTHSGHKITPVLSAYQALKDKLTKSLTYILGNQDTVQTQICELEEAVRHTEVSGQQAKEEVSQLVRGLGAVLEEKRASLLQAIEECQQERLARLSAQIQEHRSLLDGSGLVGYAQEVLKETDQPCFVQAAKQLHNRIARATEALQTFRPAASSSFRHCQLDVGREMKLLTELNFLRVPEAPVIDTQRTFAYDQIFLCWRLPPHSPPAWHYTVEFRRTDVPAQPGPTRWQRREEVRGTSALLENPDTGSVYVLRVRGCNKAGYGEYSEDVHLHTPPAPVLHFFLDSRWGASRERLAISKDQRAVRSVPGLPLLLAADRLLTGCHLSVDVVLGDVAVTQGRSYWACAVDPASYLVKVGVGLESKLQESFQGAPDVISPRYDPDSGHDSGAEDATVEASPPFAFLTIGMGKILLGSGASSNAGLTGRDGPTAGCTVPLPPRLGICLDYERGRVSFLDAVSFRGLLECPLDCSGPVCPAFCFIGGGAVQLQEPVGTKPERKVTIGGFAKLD
Assay: co-IP; H358 cell lysates; anti-TRIM46, anti-PHLPP2 antibody or control IgG for 1 h at 4 °C, then protein A/G beads for 3 h at 4 °C; immunoblot

B1: pleckstrin homology domain leucine-rich repeat protein phosphatase 2 (protein, UniProt Q6ZVD8 1-1323)
chain: MKRNGSRNCLNRRSRFGSRERDWLREDVKRGCVYLYGADTTTATTTTTTSSSSSSSSSSSDLHLVLCTVETPASEICAGEGRESLYLQLHGDLVRRLEPTERPLQIVYDYLSRLGFDDPVRIQEEATNPDLGCMIRFYGEKPCHMDRLDRILLSGIYNVRKGKTQLHKWAERLVVLCGTCLIVSSVKDCQTGKMHILPLVGGKIEEVKRRQYSLAFSSAGAQAQTYHVSFETLAEYQRWQRQASKVVSQRISTVDLSCYSLEEVPEHLFYSQDITYLNLRHNFMQLERPGGLDTLYKFSQLKGLNLSHNKLGLFPILLCEISTLTELNLSCNGFHDLPSQIGNLLNLQTLCLDGNFLTTLPEELGNLQQLSSLGISFNNFSQIPEVYEKLTMLDRVVMAGNCLEVLNLGVLNRMNHIKHVDLRMNHLKTMVIENLEGNKHITHVDLRDNRLTDLDLSSLCSLEQLHCGRNQLRELTLSGFSLRTLYASSNRLTAVNVYPVPSLLTFLDLSRNLLECVPDWACEAKKIEVLDVSYNLLTEVPVRILSSLSLRKLMLGHNHVQNLPTLVEHIPLEVLDLQHNALTRLPDTLFSKALNLRYLNASANSLESLPSACTGEESLSMLQLLYLTNNLLTDQCIPVLVGHLHLRILHLANNQLQTFPASKLNKLEQLEELNLSGNKLKTIPTTIANCKRLHTLVAHSNNISIFPEILQLPQIQFVDLSCNDLTEILIPEALPATLQDLDLTGNTNLVLEHKTLDIFSHITTLKIDQKPLPTTDSTVTSTFWSHGLAEMAGQRNKLCVSALAMDSFAEGVGAVYGMFDGDRNEELPRLLQCTMADVLLEEVQQSTNDTVFMANTFLVSHRKLGMAGQKLGSSALLCYIRPDTADPASSFSLTVANVGTCQAVLCRGGKPVPLSKVFSLEQDPEEAQRVKDQKAIITEDNKVNGVTCCTRMLGCTYLYPWILPKPHISSTPLTIQDELLILGNKALWEHLSYTEAVNAVRHVQDPLAAAKKLCTLAQSYGCQDNVGAMVVYLNIGEEGCTCEMNGLTLPGPVGFASTTTIKDAPKPATPSSSSGIASEFSSEMSTSEVSSEVGSTASDEHNAGGLDTALLPRPERRCSLHPTPTSGLFQRQPSSATFSSNQSDNGLDSDDDQPVEGVITNGSKVEVEVDIHCCRGRDLENSPPLIESSPTLCSEEHARGSCFGIRRQNSVNSGMLLPMSKDRMELQKSPSTSCLYGKKLSNGSIVPLEDSLNLIEVATEVPKRKTGYFAAPTQMEPEDQFVVPHDLEEEVKEQMKQHQDSRLEPEPHEEDRTEPPEEFDTAL
binding: binds
